Assay results published in the supplement of paper PMC3741180, “A Novel High Throughput Biochemical Assay to Evaluate the HuR Protein-RNA Complex Formation” (PLoS ONE, 2013).
The list shows a part of the results. Single values are uncertain here, since repeats match poorly.

Amino acid sequences for entries named in this document (tags omitted).
UniProt Q15717, whole entry: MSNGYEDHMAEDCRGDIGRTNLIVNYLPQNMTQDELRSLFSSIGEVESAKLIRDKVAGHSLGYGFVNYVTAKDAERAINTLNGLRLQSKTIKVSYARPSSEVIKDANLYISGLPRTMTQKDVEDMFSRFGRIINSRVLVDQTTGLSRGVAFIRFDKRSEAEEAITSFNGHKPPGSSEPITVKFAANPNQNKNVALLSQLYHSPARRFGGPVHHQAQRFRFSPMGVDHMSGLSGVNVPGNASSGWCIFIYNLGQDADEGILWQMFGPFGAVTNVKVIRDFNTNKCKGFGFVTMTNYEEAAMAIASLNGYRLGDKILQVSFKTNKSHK

target: HuR (ELAVL1) - TNFalpha ARE RNA complex (UniProt Q15717); test: AlphaScreen HuR-RNA complex signal Z-score relative to positive (Bi-TNF, DMSO) controls (Z-score (SD units of positive control)); higher = more complex signal; conditions: screen stage: primary screen; compound concentration: 25 nM

Row | SMILES | AlphaScreen HuR-RNA complex signal Z-score
1 | Oc1ccc(Cl)c2cccnc12 | -2.85
2 | Nc1c(Br)cc(Br)cc1CN[C@H]1CC[C@H](O)CC1 | 2.77
3 | CC(C)(Sc1cc(C(C)(C)C)c(O)c(C(C)(C)C)c1)Sc1cc(C(C)(C)C)c(O)c(C(C)(C)C)c1 | 0.456
4 | CC1(C)CCC[C@]2(C)[C@@H]3[C@H]1[C@@H](O)[C@@]2(C)C[C@H]3O | 1.71
5 | COc1ccc(-c2c(O)c3c(OC)c4c(cc3oc2=O)OC(C)(C)C=C4)cc1 | 2.08
6 | CC(=O)NO | 0.622
7 | CN1CCCN=C1COC(=O)C(O)(c1ccccc1)C1CCCCC1 (configuration not stated) | 1.11
8 | CC(C)(S)[C@@H](N)C(=O)O | 1.93
9 | CO[C@H]1C[C@H](O[C@H]2[C@H](C)[C@@H](O[C@@H]3O[C@H](C)C[C@H](N(C)C)[C@H]3OC(C)=O)[C@@H](C)C[C@@]3(CO3)C(=O)[C@H](C)[C@@H](OC(C)=O)[C@@H](C)[C@@H](C)OC(=O)[C@@H]2C)O[C@@H](C)[C@@H]1OC(C)=O | 0.171
10 | O=C(O)CCCN1C(=O)c2cccc3cccc(c23)C1=O | 2.21
11 | COc1ccc(-c2oc3ccccc3c(=O)c2OC)cc1 | 0.301
12 | COc1cc(C/C=C/c2ccccc2)c(OC)cc1O | 1.73
13 | O=C1O[C@H](CO)[C@@H](O)[C@H](O)[C@H]1O | 1.37
14 | C=C1C2CC[C@@]3(C)[C@H](c4ccoc4)OC(=O)C[C@]13O[C@H]1CC(O)C(C)(C)C(CC(=O)OC)[C@@]21C (stereo partly drawn) [3alpha-HYDROXY-3-DEOXYANGOLENSIC ACID METHYL ESTER] | 1.74
15 | O=C(O)c1ccccc1Nc1ccccc1 | 1.33
16 | COc1c(O)cc2c(-c3ccccc3)cc(=O)oc2c1OC | -4.89
17 | CC(=O)O[C@H]1CC[C@]2(C)C3=C(CC[C@H]2C1(C)C)[C@]1(C)CC[C@H]([C@H](C)CCC=C(C)C)[C@@]1(C)CC3 | 1.79
18 | CN1CCN(C2=Nc3cc(Cl)ccc3Nc3ccccc32)CC1 | -0.159
19 | Clc1ccc(COC(Cn2ccnc2)c2ccc(Cl)cc2Cl)c(Cl)c1 (configuration not stated) | 4.64

Row | SMILES | AlphaScreen HuR-RNA complex signal Z-score
20 | Cc1cc(=O)n(-c2ccccc2)n1C | 0.315
21 | NC12CC3CC(CC(C3)C1)C2 | 0.311
22 | O=c1c2ccccc2oc2ccccc12 | 1.91
23 | O=C(O)c1cc(O)c2c(c1)[C@@H]([C@H]1c3cc(C(=O)O)cc(O)c3C(=O)c3c(O[C@@H]4O[C@H](CO)[C@@H](O)[C@H](O)[C@H]4O)cccc31)c1cccc(O[C@@H]3O[C@H](CO)[C@@H](O)[C@H](O)[C@H]3O)c1C2=O | 3.1
24 | N=C1C=CC(=C(c2ccc(N)cc2)c2ccc(N)cc2)C=C1 | 1.08
25 | C=CC(C)(O)CCC1C(=C)CC(O)C2C(C)(C)CCCC12C (configuration not stated) | 0.457
26 | CC(=O)N(O)CCCCCNC(=O)CCC(=O)N(O)CCCCCNC(=O)CCC(=O)N(O)CCCCCN | -6.25
27 | CC(C)/N=c1\cc2n(-c3ccc(Cl)cc3)c3ccccc3nc-2cc1Nc1ccc(Cl)cc1 | 1.17
28 | CCNC(=O)CC[C@H](N)C(=O)O | 1.93
29 | NCCCCNCCCN | 1.84
30 | CN1CC(=O)NC1=N | -0.173
31 | CCC(NC(C)C)C(O)c1ccc(O)c(O)c1 (configuration not stated) | 2.27
32 | CCC(Cc1c(I)cc(I)c(N)c1I)C(=O)O (configuration not stated) | 1.31
33 | CN1CCc2cccc3c2[C@H]1Cc1ccc(O)c(O)c1-3 | 0.412
34 | O=C1C=C2CC3(O)COc4c(ccc(O)c4O)C3=C2C=C1O (configuration not stated) | 1.27
35 | C[C@]12CC[C@@H]3c4ccc(O)cc4CC[C@H]3[C@@H]1CC[C@@H]2OC(=O)CCC1CCCC1 | -1.83
36 | CO[C@@]1(NC(=O)CSCC#N)C(=O)N2C(C(=O)O)=C(CSc3nnnn3C)CS[C@@H]21 | 0.258
37 | C[C@@H]1[C@H](O)[C@@H](C)/C=C/C=C/C=C/C=C/C=C/C=C/C=C/[C@H](O[C@@H]2O[C@H](C)[C@@H](O)[C@H](N)[C@@H]2O)C[C@@H]2O[C@](O)(C[C@@H](O)C[C@@H](O)[C@H](O)CC[C@@H](O)C[C@@H](O)CC(=O)O[C@H]1C)C[C@H](O)[C@H]2C(=O)O | 0.719
38 | CCOC(=O)C(C)(C)Oc1ccc(Cl)cc1 | 0.088

Row | SMILES | AlphaScreen HuR-RNA complex signal Z-score
39 | CCN(CCO)CCCC(C)Nc1ccnc2cc(Cl)ccc12 (configuration not stated) | 1.2
40 | CON | 2.42
41 | O=c1ccn([C@@H]2O[C@H](COP(=O)(O)OP(=O)(O)OP(=O)(O)O)[C@@H](O)[C@H]2O)c(=O)[nH]1 | 2.96
42 | CN(C)c1ccc(C(=C2C=CC(=[N+](C)C)C=C2)c2ccc(N(C)C)cc2)cc1 | -5.07
43 | CC(=O)[C@H]1CC[C@H]2[C@@H]3CC=C4C[C@@H](O)CC[C@]4(C)[C@H]3CC[C@]12C | 2.03
44 | CC12CCCC(O)(C1)C1CC(C)(C)C1CC2 (stereo not drawn) [beta-CARYOPHYLLENE ALCOHOL] | 3.95
45 | CC(C)(C)c1ccc(C(O)CCCN2CCC(C(O)(c3ccccc3)c3ccccc3)CC2)cc1 (configuration not stated) | -0.00224
46 | CC(COc1ccccc1)NC(C)C(O)c1ccc(O)cc1 (configuration not stated) | -5.37
47 | Cc1cc(=O)oc2c(O)c(O)ccc12 | 1.19
48 | CC1(C)[C@@H](O)CC[C@]2(C)[C@H]3C(=O)C=C4[C@H]5C[C@@](C)(C(=O)O)CC[C@]5(C)CC[C@@]4(C)[C@]3(C)CC[C@@H]12 [18alpha-GLYCYRRHETINIC ACID] | 0.792
49 | CCCCN1CCCCC1C(=O)Nc1c(C)cccc1C (configuration not stated) | 1.63
50 | CCOC(=O)NNc1nncc2ccccc12 | 2.29
51 | CC(=O)c1c(O)cc(O)cc1O | 2.7
52 | CC(=O)O[C@@H]1CC2C(C)(CC[C@H](O)C2(C)C)C2CC[C@]3(C)C(=CC(=O)O[C@H]3c3ccoc3)C21C (stereo partly drawn) [3beta-HYDROXYDEOXODIHYDRODEOXYGEDUNIN] | 1.07
53 | CC(=O)N[C@@H](C=O)[C@@H](O)[C@H](O)[C@H](O)CO | 0.752
54 | Nc1ccc(S(=O)(=O)Nc2ccccn2)cc1 | 2.16
55 | CO[C@H]1C[C@H](O[C@H]2[C@H](C)[C@@H](O[C@@H]3O[C@H](C)C[C@H](N(C)C)[C@H]3O)[C@@H](C)C[C@@]3(CO3)C(=O)[C@H](C)[C@@H](O)[C@@H](C)[C@@H](C)OC(=O)[C@@H]2C)O[C@@H](C)[C@@H]1O | -0.475
56 | OC[C@H]1O[C@H](OCC2O[C@@H](O)[C@H](O)[C@@H](O)[C@@H]2O)[C@H](O)[C@@H](O)[C@H]1O (some centres not stated) | 1.42
57 | Nc1ccn([C@@H]2O[C@H](CO)[C@@H](O)[C@@H]2O)c(=O)n1 | -2.84

Retrieved one by one from above:
Row | SMILES | AlphaScreen HuR-RNA complex signal Z-score
30 | CN1CC(=O)NC1=N | -0.173
46 | CC(COc1ccccc1)NC(C)C(O)c1ccc(O)cc1 (configuration not stated) | -5.37
19 | Clc1ccc(COC(Cn2ccnc2)c2ccc(Cl)cc2Cl)c(Cl)c1 (configuration not stated) | 4.64
